Article doi:10.1101/354316

Target: T1, FLAG-LRCH4 (human) (UniProt O75427)
T1 sequence: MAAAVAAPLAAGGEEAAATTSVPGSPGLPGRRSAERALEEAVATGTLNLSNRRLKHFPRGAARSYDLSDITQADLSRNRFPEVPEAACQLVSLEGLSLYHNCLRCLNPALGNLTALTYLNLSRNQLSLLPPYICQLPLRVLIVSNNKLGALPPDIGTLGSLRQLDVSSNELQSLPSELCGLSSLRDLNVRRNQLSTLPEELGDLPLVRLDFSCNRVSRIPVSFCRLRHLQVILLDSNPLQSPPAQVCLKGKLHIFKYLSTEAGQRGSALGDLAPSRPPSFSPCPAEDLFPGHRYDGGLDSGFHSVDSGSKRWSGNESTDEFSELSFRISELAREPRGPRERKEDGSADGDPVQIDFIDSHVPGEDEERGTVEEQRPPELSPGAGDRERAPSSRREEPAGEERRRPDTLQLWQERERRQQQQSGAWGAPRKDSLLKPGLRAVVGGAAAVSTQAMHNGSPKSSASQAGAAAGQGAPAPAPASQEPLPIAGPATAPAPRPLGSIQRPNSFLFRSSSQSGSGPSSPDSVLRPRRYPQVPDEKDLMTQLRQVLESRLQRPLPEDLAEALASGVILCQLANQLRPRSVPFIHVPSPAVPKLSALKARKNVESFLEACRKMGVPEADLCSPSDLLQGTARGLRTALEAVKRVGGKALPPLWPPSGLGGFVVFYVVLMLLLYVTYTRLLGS
Experiment: co-IP

mCherry-tagged DOCK7 fragment (DHR2 domain) (human) (domain or fragment)
binding: binds

No constants are given. Whether binding was seen depends on the method and setting. Binding seen in cells or lysates may run through a third protein. Binding can be weak; no strength is given. Sequences can lack the tags named with a protein.
